Test results from patent US20190194345A1 (UNIVERSITY OF VIRGINIA PATENT FOUNDATION, published 2019).
These are yes or no findings as the source states them, for the method shown. Some entries that bind do so weakly or less than the wild type.

Columns and labels:
mouse SAS1B [1] = molecular target: T1, mouse SAS1B (mouse, UniProt Q6HA09 24-435, limits assumed); assay: western blot of human SAS1B and mouse SAS1B
T1 sequence (looked up): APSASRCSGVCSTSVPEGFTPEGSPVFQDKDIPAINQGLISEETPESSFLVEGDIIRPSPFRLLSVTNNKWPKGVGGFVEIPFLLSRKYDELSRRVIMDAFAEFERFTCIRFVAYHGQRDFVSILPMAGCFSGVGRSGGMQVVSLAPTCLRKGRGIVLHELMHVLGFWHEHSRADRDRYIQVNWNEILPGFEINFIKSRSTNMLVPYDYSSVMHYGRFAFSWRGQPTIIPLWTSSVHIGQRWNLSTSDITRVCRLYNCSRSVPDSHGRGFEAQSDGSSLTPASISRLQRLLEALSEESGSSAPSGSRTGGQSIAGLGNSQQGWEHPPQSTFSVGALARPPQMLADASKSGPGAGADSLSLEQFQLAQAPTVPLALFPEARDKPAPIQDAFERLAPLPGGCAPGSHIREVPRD

[2] = molecular target: T2, human SAS1B (recombinant antigen) (human) (UniProt Q6HA08); assay: western blot of human SAS1B and mouse SAS1B
T2 sequence: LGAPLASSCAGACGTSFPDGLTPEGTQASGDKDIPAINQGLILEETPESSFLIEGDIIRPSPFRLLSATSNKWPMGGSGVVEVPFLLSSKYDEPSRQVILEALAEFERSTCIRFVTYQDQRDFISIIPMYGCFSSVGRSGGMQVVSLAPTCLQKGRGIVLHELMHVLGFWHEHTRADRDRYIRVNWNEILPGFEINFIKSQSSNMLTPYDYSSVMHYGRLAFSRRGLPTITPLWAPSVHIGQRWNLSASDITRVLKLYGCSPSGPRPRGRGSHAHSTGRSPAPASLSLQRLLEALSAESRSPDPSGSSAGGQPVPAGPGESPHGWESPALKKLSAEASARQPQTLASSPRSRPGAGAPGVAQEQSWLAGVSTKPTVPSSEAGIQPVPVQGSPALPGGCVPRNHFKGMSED

mouse SAS1B [3] = molecular target: T1, mouse SAS1B; assay: summary table: specifically binds mouse and human SAS1B
[4] = molecular target: T2, human SAS1B (recombinant antigen) (human); assay: as above
[5] = molecular target: T3, SAS1B on the surface of live cancer cells (human) (UniProt Q6HA08); assay: live cell indirect immunofluorescence
T3 sequence: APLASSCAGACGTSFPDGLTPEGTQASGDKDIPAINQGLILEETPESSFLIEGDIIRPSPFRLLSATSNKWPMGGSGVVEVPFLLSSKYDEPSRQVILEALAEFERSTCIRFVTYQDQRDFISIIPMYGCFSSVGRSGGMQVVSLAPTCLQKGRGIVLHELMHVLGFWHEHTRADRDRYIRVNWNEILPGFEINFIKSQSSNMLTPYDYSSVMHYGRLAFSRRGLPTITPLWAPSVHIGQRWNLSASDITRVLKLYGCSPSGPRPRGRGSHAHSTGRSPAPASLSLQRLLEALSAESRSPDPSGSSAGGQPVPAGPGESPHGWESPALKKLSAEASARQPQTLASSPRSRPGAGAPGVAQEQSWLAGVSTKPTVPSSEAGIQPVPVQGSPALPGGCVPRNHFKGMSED

[6] = molecular target: T4, endogenous SAS1B extracted from cancer cells (human) (UniProt Q6HA08); assay: western blot, figure legend of FIG. 23
T4 sequence: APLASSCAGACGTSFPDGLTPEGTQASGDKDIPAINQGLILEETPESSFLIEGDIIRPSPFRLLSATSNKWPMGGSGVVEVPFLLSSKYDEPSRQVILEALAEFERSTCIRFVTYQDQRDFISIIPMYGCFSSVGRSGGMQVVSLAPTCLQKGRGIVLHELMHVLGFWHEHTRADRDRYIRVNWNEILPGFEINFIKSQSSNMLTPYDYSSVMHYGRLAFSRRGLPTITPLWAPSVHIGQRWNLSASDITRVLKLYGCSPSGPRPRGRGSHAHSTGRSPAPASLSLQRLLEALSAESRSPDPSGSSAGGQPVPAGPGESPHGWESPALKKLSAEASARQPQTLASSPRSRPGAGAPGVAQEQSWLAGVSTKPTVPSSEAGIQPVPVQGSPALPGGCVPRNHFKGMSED

[7] = molecular target: T4, endogenous SAS1B extracted from cancer cells (human); assay: western blot of SNU539 RIPA extract, mAb at 3 ug/ml
[8] = molecular target: T4, endogenous SAS1B extracted from cancer cells (human); assay: western blot of uterine cancer cell extract (FIG. 23)
[9] = molecular target: T3, SAS1B on the surface of live cancer cells (human); assay: live cell indirect immunofluorescence, M1 and MMMT539 cells
[10] = molecular target: T3, SAS1B on the surface of live cancer cells (human); assay: live cell immunofluorescence, MPanc96 and 366 cells, 20 ug/mL
[11] = molecular target: T2, human SAS1B (recombinant antigen) (human); assay: summary table: specifically binds human SAS1B (and not mouse SAS1B)
[12] = molecular target: T3, SAS1B on the surface of live cancer cells (human); assay: confocal immunofluorescence on live cells (FIG. 25)
[13] = molecular target: T3, SAS1B on the surface of live cancer cells (human); assay: confocal immunofluorescence, figure legend of FIG. 25
[14] = molecular target: T4, endogenous SAS1B extracted from cancer cells (human); assay: 2-D gel western blot of SNU539 lysate

Measured: binding

B1: anti-human SAS1B murine monoclonal antibody SB1 (antibody, IgG2a, V domains shown)
VH: EVQLQQSGPELVKPGSSVKISCKASGYTFTDYNMDWVKQSHGKSLEWIGAINPNNGGTSYNQKFKGKATLTVDKSSSTAYMELRSLTSEDSAVYYCATNEYWGQGTTLTVSS
VL: NIVMTQSPKSMSMSVGERVTLSCKASENVGTYVSWYQQKPEQSPKLLIYGASNRYTGVPDRFTGSGSATDFTLTISSVQAEDLADYHCGQSYSYPWTFGGGTKLEIK
notes: also called SB1 mAb
binds: mouse SAS1B [1] | [2] | mouse SAS1B [3] | [4]

B2: anti-human SAS1B murine monoclonal antibody SB4 (antibody, IgG2a, V domains shown)
VH: EVQLQQSGPELVKPGSSVKISCKPSGYTFTDYNMVWMKQSHGKSLEWIGAINPNNGGTTYNQKFKGKATLTVDKSSSTAYMELRSLTSEDSAVYYCAPNWDWFAYWGQGTLVTVSA
VL: DVLMTQTPLSLPVSLGDQASISCRSSQSILHSNGNTYLEWYLQKPGQSPKLLIYKVSNRFSGVPDRFSGSGSGTDFTLKISRVEAEDLGVYYCFQGSHVPFTFGSGTKLEIK
notes: Mouse hybridoma antibody, isotype IgG2a-k; also called SB4 mAb
binds: [5] | [6] | [2] | [7] | [8] | [9] | [10] | [11]

B3: anti-human SAS1B murine monoclonal antibody SB2 (antibody, IgG2b, V domains shown)
VH: EVQLQQSGPELVKPGSSVKISCKASGYTFTDYNMVWVKQSHGKSLEWIGAVNPNNGGTSYNQKFKGKATLTVDKSSSTAYMELRSLTSEDSAVYYCVPNWDWFAYWGQGTLVTVSA
VL: DVLMTQTPLSLPVSLGDQASISCRSSQSLVHSNGNTYLEWYLQKPGQSPNLLIYKVSNRFSGVPDRFSGSGSGTDFTLKISRVEAEDLGVYYCFQGSHVPFTFGSGTKLEIK
notes: also called SB2 mAb
not listed: mouse SAS1B [1] | mouse SAS1B [3] | [4] | [10] | [14]
binds: all other assays above

B4: anti-human SAS1B murine monoclonal antibody SB3 (antibody, IgG2b, V domains shown)
VH: EVQLQQSGPELVKPGSSVKISCKASGYTFTDYNMVWVKQSHGKSLEWIGAVNPNNGGTSYNQKFKGKATLTVDKSSSTAYMELRSLTSEDSAVYYCVPNWDWFAYWGQGTLVTVSA
VL: DVLMTQTPLSLPVSLGDQASISCRSSQSLVHSNGNTYLEWYLQKPGQSPNLLIYKVSNRFSGVPDRFSGSGSGTDFTLKISRVEAEDLGVYYCFQGSHVPFTFGSGTKLEIK
notes: also called SB3 mAb
binds: [5] | [6] | [2] | [8] | [9] | [11]

B5: anti-human SAS1B murine monoclonal antibody SB5 (antibody, IgG2b, V domains shown)
VH: EVQLQQSGPELVKPGSSVKISCKPSGYTFTDYNMVWMKQSHGKSLEWIGAINPNNGGTTYNQKFKGKATLTVDKSSSTAYMELRSLTSEDSAVYYCAPNWDWFAYWGQGTLVTVSA
VL: DVLMTQIPLSLPVSLGDQASISCRSSQSILHSNGNTYLEWYLQKPGQSPKLLIYKVSNRFSGVPDRFSGSGSGTDFTLKISRVEAEDLGVYYCFQGSHVPFTFGSGTKLEIK
notes: Mouse hybridoma antibody, isotype IgG2b-k; also called SB5 mAb
not listed: mouse SAS1B [1] | mouse SAS1B [3] | [4] | [12] | [13]
binds: all other assays above

B6: anti-human SAS1B murine monoclonal antibody SB6 (antibody, IgG2b, V domains shown)
VH: EVQLQQSGPELVKPGSSVKISCKPSGYTFTDYNMVWMKQSHGKSLEWIGAINPNNGGTTYNQKFKGKATLTVDKSSSTAYMELRSLTSEDSAVYYCAPNWDWFAYWGQGTLVTVSA
VL: DVLMTQIPLSLPVSLGDQASISCRSSQSILHSNGNTYLEWYLQKPGQSPKLLIYKVSNRFSGVPDRFSGSGSGTDFTLKISRVEAEDLGVYYCFQGSHVPFTFGSGTKLEIK
binds: [2] | [11]

B7: anti-human SAS1B murine monoclonal antibody SB7 (antibody, IgG2b, V domains shown)
VH: EVQLQQSGPELVKPGSSVKISCKPSGYTFTDYNMVWMKQSHGKSLEWIGAINPNNGGTTYNQKFKGKATLTVDKSSSTAYMELRSLTSEDSAVYYCAPNWDWFAYWGQGTLVTVSA
VL: DVLMTQIPLSLPVSLGDQASISCRSSQSILHSNGNTYLEWYLQKPGQSPKLLIYKVSNRFSGVPDRFSGSGSGTDFTLKISRVEAEDLGVYYCFQGSHVPFTFGSGTKLEIK
binds: [2] | [11]
